From publication PMC6019040 come the findings set out here.

In the data set the test system is GST-CsMYB6 (Cucumis sativus). Kind of data set: EMSA. Conditions: 3 ug protein, 25 pM probe, 50-fold unlabeled competitor also tested; LightShift Chemiluminescent EMSA kit (Thermo) per manufacturer; 3 ug GST-CsMYB6; pH and temperature not stated; recombinant protein; protein details: N-terminal GST; label: biotin on both strands (printed as 5' biotin). A general note: A gel shift assay detects complexes by their altered migration in electrophoresis.

For at least one entry, the source does not settle the construct or the ends of the probe.

Turning to “CCAACCCAACAAGTCAACCAACAAACTTAC (double strand) [CsTRY promoter MBS probe 1 (Biotin1)]”, the binding result is recorded as “binds”.

Consider “CCCTGTAAGTTGTCAACTACAAGTCTACCA (double strand) [CsTRY promoter MBS probe 2 (Biotin2)]”, for which the binding result is “binds”.

Take “CTAATTAGTTGTCAACTCATGATCATTGAA (double strand) [CsTRY promoter MBS probe 3 (Biotin3)]”: the binding result is “binds”.
